Measured values as given in PubChem BioAssay AID1487 (National Center for Advancing Translational Sciences (NCATS), 2009).
The other results are listed elsewhere or left out. These are further read-outs of the screen, such as a control signal, another cell line or another target. No call is given for them. The list favours compounds with an active or inconclusive main result. The note in brackets gives the kind of curve behind each potency; many fits are weak.

Assay: qHTS Assay for Modulators of Lamin A Splicing
Settings: HeLa LMNA splicing GFP/RFP minigene ratio, 48 h
Procedure, shortened: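 S3 HeLa stable clones carrying a lamin A-EGFP splicing minigene plus DsRed2 were seeded at 600 cells/well in Opti-MEM with 2% FBS, pin-dosed and incubated 48 h at 37°C. Acumen cytometry (488 nm) gave the GFP/RFP total-intensity ratio.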

[1] = measured here: RFP viability control channel
[2] = measured here: GFP splicing reporter channel

## O=C1NC2(CCCCC2)C(=O)N1Cc1ccc([N+](=O)[O-])cc1
[1]
  AC50: 0.398 µM [rising, full curve, poor fit]

## CN1/C(=C\C(=O)c2cccnc2)C(C)(C)c2ccccc21
[1]
  AC50: 10 µM [rising, partial curve]

## CCN(CC)S(=O)(=O)c1ccc2oc(SCC(=O)NCc3ccccc3)nc2c1
[1]
  AC50: 35.5 µM [rising, single point]

## CC(C)(C)c1nc(SCC(=O)N2CCCC2)c2ccccc2n1
[2]
  AC50: 0.398 µM [rising, partial curve]
[1]
  AC50: 1.12 µM [rising, partial curve]

## O=S(=O)(Nc1nc2ccccc2s1)c1ccc(Cl)s1
[1]
  AC50: 11.2 µM [rising, single point]

## O=C(COc1ccc2ccccc2c1)Nc1cccc2cccnc12
[2]
  AC50: 20 µM [rising, partial curve, poor fit]
[1]
  AC50: 15.8 µM [rising, single point]

## COc1ccc(CNc2cc(-c3ccccc3C)ncn2)c(OC)c1
[2]
  AC50: 11.2 µM [falling, partial curve]
[1]
  AC50: 11.2 µM [falling, partial curve, poor fit]

## COc1ccc(-c2nn(-c3ccccc3)cc2/C=N/N2C(=O)CSC2=S)cc1
[1]
  AC50: 35.5 µM [rising, single point]

## COC(=O)c1c(NC(=O)COC(=O)[C@@H](NS(=O)(=O)c2ccc(C)cc2)C(C)C)sc2c1CCC2
[1]
  AC50: 31.6 µM [rising, single point]

## Cc1ncc(CO)c(CN)c1O
[1]
  AC50: 0.447 µM [rising, single point]

## CC(C)Oc1ccc(NC(=O)Oc2ccccc2)cc1
[2]
  AC50: 6.31 µM [rising, single point]
[1]
  AC50: 5.62 µM [rising, single point]

## O=C(Cn1cc([N+](=O)[O-])cn1)NCc1ccc(-n2cccn2)cc1
[1]
  AC50: 5.62 µM [rising, single point]

## COc1ccc(-c2cn(/N=C/c3ccc(Cl)cc3Cl)c(N)n2)cc1
[1]
  AC50: 17.8 µM [rising, single point]

## O=C(NC1CCCC1)C(c1ccc(N2CCOCC2)cc1)N(Cc1ccco1)C(=O)c1ccco1 (stereo not given)
[1]
  AC50: 6.31 µM [rising, single point]

## CCCCCCCCCCCCCCCCCCNC(=O)OCC(COP(=O)([O-])OCC[n+]1ccsc1)OC (stereo not given)
[2]
  AC50: 5.01 µM [falling, full curve, poor fit]
[1]
  AC50: 20 µM [falling, partial curve, poor fit]

## CN(C)CCCN=Cc1c(-c2ccccc2)[nH]n(-c2nc3ccccc3s2)c1=O
[2]
  AC50: 0.0891 µM [falling, full curve]
[1]
  AC50: 0.1 µM [falling, full curve, poor fit]

## Cc1ccc2cc(CN(Cc3ccco3)S(=O)(=O)c3c(C)ccc4nsnc34)c(=O)[nH]c2c1
[2]
  AC50: 5.62 µM [rising, partial curve]
[1]
  AC50: 14.1 µM [rising, single point]

## Cc1ccc(CNC(=O)CSc2nc3ccsc3c(=O)n2Cc2ccc(C(=O)O)cc2)cc1
[1]
  AC50: 0.282 µM [falling, partial curve, poor fit]

## CN(c1ccc(OCC(=O)OCC(=O)Nc2cccc([N+](=O)[O-])c2)cc1)S(=O)(=O)c1ccc(F)cc1
[2]
  AC50: 22.4 µM [rising, partial curve, poor fit]

## Cc1cccc2sc(NC(=O)C3c4ccccc4Oc4ccccc43)nc12
[2]
  AC50: 10 µM [falling, partial curve, poor fit]

## Cc1ccc(Cl)cc1NC(=O)CN1C(=O)C(C)(C)c2cc(S(=O)(=O)N3CCCCC3)ccc21
[2]
  AC50: 0.0891 µM [falling, full curve, poor fit]
[1]
  AC50: 0.794 µM [falling, full curve, poor fit]

## Cc1ccc(Cn2c(=S)[nH]c3ccc(N4CCOCC4)cc3c2=O)o1
[2]
  AC50: 22.4 µM [falling, single point]
[1]
  AC50: 17.8 µM [falling, partial curve]

## COc1ccc(N2C(=S)N=C(Nc3cccc(C)c3)C23CCCCC3)cc1
[2]
  AC50: 3.98 µM [rising, single point]
[1]
  AC50: 4.47 µM [rising, full curve, poor fit]

## C/C(=N\NC(=O)CSCc1ccc([N+](=O)[O-])cc1)c1ccccc1O
[1]
  AC50: 31.6 µM [rising, single point]

## CCOC(=O)c1ccc(OC(=O)c2cn(-c3cccc(OC)c3)c(=O)c3ccccc23)cc1
[2]
  AC50: 4.47 µM [rising, full curve, poor fit]

## O=C(O)c1ccc(NC2=C/C(=N/S(=O)(=O)c3ccccc3)c3ccccc3C2=O)cc1
[2]
  AC50: 14.1 µM [falling, single point]
[1]
  AC50: 11.2 µM [falling, partial curve, poor fit]

## CCOc1ccc(N2CC(C(=O)NCc3nnnn3-c3ccc(C)c(C)c3)CC2=O)cc1 (stereo not given)
[2]
  AC50: 0.398 µM [rising, partial curve, poor fit]

## CC(=O)c1ccc(N2CCN(C(=O)CCS(=O)(=O)c3ccc4c(c3)oc(=O)n4C)CC2)cc1
[2]
  AC50: 25.1 µM [falling, single point]
[1]
  AC50: 17.8 µM [falling, single point]

## COc1ccc2c(c1)CCc1c(C(=O)N3CCc4ccccc4C3)noc1-2
[1]
  AC50: 20 µM [rising, single point]

## COc1ccc(OC)c(C(=O)c2coc3ccc(OC(C)=O)cc23)c1
[2]
  AC50: 35.5 µM [rising, single point]
[1]
  AC50: 35.5 µM [rising, single point]

## Cc1ccccc1Oc1cc(NC(=O)CCCn2nc(C)c([N+](=O)[O-])c2C)cc([N+](=O)[O-])c1
[1]
  AC50: 35.5 µM [rising, single point]

## Cc1cc(=O)n(CC(=O)N2CCN(c3ccc(F)cc3)CC2)c2c1c(C)nn2C
[1]
  AC50: 0.0112 µM [falling, full curve, poor fit]

## Cn1c(=O)c2c(ncn2Cc2ccc(Cl)c(Cl)c2)n(C)c1=O
[2]
  AC50: 12.6 µM [rising, partial curve]
[1]
  AC50: 8.91 µM [rising, partial curve]

## O=C(CN1C(=O)CCC1=O)Nc1nc(-c2ccc(Cl)s2)cs1
[1]
  AC50: 15.8 µM [rising, single point]

## Cc1ccc(/C=C/c2nc3ccccc3[nH]2)o1
[2]
  AC50: 0.00316 µM [falling, full curve, poor fit]
[1]
  AC50: 0.01 µM [falling, full curve, poor fit]

## C=CCOc1c(CNn2cn[nH]c2=S)cccc1OC
[1]
  AC50: 0.447 µM [falling, full curve]

## Cc1ccc(C(=O)c2ccc(N3CCOCC3)c(F)c2)cc1
[1]
  AC50: 20 µM [rising, single point]

## Nc1ccc(C(=O)O)c(O)c1
[2]
  AC50: 1.78 µM [falling, partial curve, poor fit]
[1]
  AC50: 5.62 µM [rising, single point]

## CCN(Cc1ccccc1)S(=O)(=O)c1ccc(C(=O)N2CCN(c3nc4ccccc4s3)CC2)cc1
[1]
  AC50: 8.91 µM [rising, partial curve]

## CN1CCN(CCC(=O)Nc2ccc(F)c(F)c2)CC1
[1]
  AC50: 12.6 µM [falling, single point]

## CCc1ccc(NC(=O)C(=O)NCC(c2cccnc2)N2CCOCC2)cc1 (stereo not given)
[2]
  AC50: 35.5 µM [falling, single point]
[1]
  AC50: 35.5 µM [falling, single point]

## O=C(c1cccc(F)c1)N1CCN(C(=O)c2cc(-c3ccc(Cl)cc3Cl)on2)CC1
[1]
  AC50: 35.5 µM [rising, single point]

## O=C(Nc1cccnc1)c1cc2nc(C3CC3)cc(C(F)(F)F)n2n1
[1]
  AC50: 2 µM [falling, single point]

## CC1CCc2sc(C(=O)NCc3ccc(F)cc3)cc2C1 (stereo not given)
[1]
  AC50: 12.6 µM [rising, single point]

## Cc1nn(Cc2ccccc2Cl)c2sc(C(=O)NCCCn3ccnc3)cc12
[2]
  AC50: 3.16 µM [rising, partial curve, poor fit]
[1]
  AC50: 12.6 µM [rising, single point]

## Nn1c(-c2ccccc2Cl)nnc1-c1ccccc1Cl
[1]
  AC50: 35.5 µM [rising, single point]

## Cc1ccccc1CSc1nc2cccnc2n1Cc1ccc(C(=O)NCCc2cccs2)cc1
[2]
  AC50: 25.1 µM [falling, partial curve, poor fit]
[1]
  AC50: 31.6 µM [falling, partial curve]

## CCOC(=O)c1[nH]c2ccc(OC)cc2c1NC(=O)c1ccc(OC)c(OC)c1
[1]
  AC50: 7.08 µM [rising, partial curve]

## COc1cc(CNCc2ccccn2)ccc1OCc1ccccc1Cl
[1]
  AC50: 25.1 µM [rising, single point]

## CCOc1cccc2sc(N(CCN(C)C)C(=O)c3ccc(Br)s3)nc12
[2]
  AC50: 1.58 µM [falling, full curve, poor fit]

## CCc1ncc(C(=O)c2ccc(OC)cc2)n1C
[1]
  AC50: 22.4 µM [rising, partial curve, poor fit]

## S=C(NCc1cccs1)Nc1cccc(Cl)c1Cl
[1]
  AC50: 35.5 µM [rising, single point]

## CSc1nsc(SCC(=O)Nc2nc3ccccc3s2)n1
[2]
  AC50: 12.6 µM [rising, single point]
[1]
  AC50: 25.1 µM [rising, single point]

## Cc1ccc(-c2ccc(/C=N\NC(=O)c3cc4c(ccc5ccccc54)o3)o2)cc1[N+](=O)[O-]
[2]
  AC50: 15.8 µM [falling, single point]
[1]
  AC50: 12.6 µM [falling, partial curve]
